# From US20030195152A1 (priority 2000, published 2003)
# Assay: general procedure: peptide synthesis; Wang resin; TBTU, HOBt, DIPEA
# Conditions: conjugation step, trifluoroacetate
substance,measurement,value
4-deacetyl-4-O-(t-butoxycarbonyl-6-aminohexanoyl-leucyl-glycyl-leucyl)-vinblastine,conjugation yield,75% yield
